Our source for the binding values is paper PMC6158461.

By UniProt entry, the sequences of proteins in these tests, tags left out. Where a name states a change or a piece, a line headed by the entry shows the natural chain unless it says otherwise.
UniProt Q9HYR1: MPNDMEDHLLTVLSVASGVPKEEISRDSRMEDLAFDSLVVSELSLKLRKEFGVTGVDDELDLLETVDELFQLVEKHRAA

Results are given in words; binding and its absence hold for the method and conditions named. Binding seen in cells or lysates may run through a third protein. Binding calls can cover weak binding; strength is not graded here. Tags and fused reporters may be left off the sequences shown.

The target of this test is T1, His-tagged KatA (from plasmid pEXHTB-katA) (P. aeruginosa) (UniProt O52762).
T1 sequence: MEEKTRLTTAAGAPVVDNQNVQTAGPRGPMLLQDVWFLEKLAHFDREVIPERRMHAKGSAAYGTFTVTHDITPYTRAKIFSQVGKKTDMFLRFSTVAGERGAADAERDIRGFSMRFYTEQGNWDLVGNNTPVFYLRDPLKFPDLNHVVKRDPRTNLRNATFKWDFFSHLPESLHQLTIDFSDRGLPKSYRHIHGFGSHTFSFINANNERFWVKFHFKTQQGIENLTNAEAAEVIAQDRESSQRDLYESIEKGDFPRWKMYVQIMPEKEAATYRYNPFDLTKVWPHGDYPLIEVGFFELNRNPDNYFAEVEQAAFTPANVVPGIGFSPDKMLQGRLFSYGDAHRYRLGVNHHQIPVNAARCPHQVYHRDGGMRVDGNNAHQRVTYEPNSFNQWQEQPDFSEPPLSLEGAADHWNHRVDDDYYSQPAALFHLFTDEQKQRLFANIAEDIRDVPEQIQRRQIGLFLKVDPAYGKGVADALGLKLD
The test can be described thus: pull-down; reverse pull-down: His-KatA expressed from pEXHTB-katA in strain CW21 (Acp3-SPA); lysate over Ni2+-NTA agarose; Acp3 in the eluate detected by anti-FLAG M2 western blot; empty vector pEXHTB as control.

In the case of “Acp3 with C-terminal SPA tag (strain CW21) (from UniProt Q9HYR1)”, the binding entry was “binds”.
